# In PubChem BioAssay AID1347076 (National Center for Advancing Translational Sciences (NCATS), 2019):
# Among all 400,000 compounds or so, about 13,000 (3.2%) were called active. Inconclusive means that the source gave no clear call. Such entries were picked first, then a sample of the others. Calls come from the whole dose curve; as a rule, active = well fitted cell-killing curve with a large enough effect; inconclusive = small, poorly fitted or top-dose-only effect, or effect the other way; inactive = flat fitted curve, though single readings scatter. Potencies beside an inconclusive call are fits to weak or partial responses and may not hold up.
# Assay: qHTS assay for MDR1-selective chemotherapeutics: Primary screen using the drug-selected MDR subline cells KB-V1; note: nearly all actives have a fitted effect of over 60% in size
# Conditions: KB-V1 MDR cells viability, CellTiter-Glo, 72 h; activity change, negative = cytotoxicity: at 46.1 µM (top of the series)
# Summary of the method: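 Cells of the MDR subline KB-V1 are plated, dosed with compound at multiple concentrations, and incubated 72 h at 37 degrees C; CellTiter-Glo is then added and luminescence read after 10 min.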
# % is set by controls: 0 for no effect and ±100 for the full control effect; potency is the fitted concentration of half-maximal effect.
SMILES,Potency,"activity change, negative = cytotoxicity"
COc1ccc2c(c1)c(=O)c(C(=O)c1ccc(C)cc1)cn2Cc1ccccc1F,"inconclusive: 20.6 µM [cytotoxic, single point]",
CCCCC1CC2=C(C(=O)OC(C)(C)O2)C(c2ccc(Cl)cc2)O1 (centres undefined),,inactive: -4.01%
CC(C)Cn1c(CN(C)Cc2ccccc2)nc2c1c(=O)n(C)c(=O)n2C,,inactive: 18.4%
CCC(C(=O)OC)n1nnc2sc(-c3ccccc3)cc2c1=O (centres undefined),,inactive: 5.48%
CCOc1ccc(S(=O)(=O)Nc2ccc(C(=O)N3CCC3)cc2)cc1,"inconclusive: 11.6 µM [cytotoxic, partial curve]",
CC(=O)Nc1ccc2[nH]c3ccccc3c2c1,"inconclusive: 0.116 µM [rising, full curve]",
COc1cc(/C=C/C(=O)OCC(=O)c2ccc(OC(F)F)cc2)ccc1O,,inactive: -4.23%
Cc1ccc2[nH]c(=O)c(COC(=O)C3CCCCC3)cc2c1,"inconclusive: 32.6 µM [cytotoxic, single point]",
OC1CCCN(Cc2c3ccccc3cc3ccccc23)C1 (centres undefined),"inconclusive: 18.4 µM [cytotoxic, partial curve]",
CCCCOc1ccccc1NC(=O)c1scc2c1OCCO2,"inconclusive: 11.2 µM [cytotoxic, partial curve]",
COc1ccc(NC(=O)c2ccc(S(=O)(=O)N(C)c3ccccc3)cc2)cn1,,inactive: -10.9%
CCc1ccc(NC(=O)c2nn(-c3ccc(OC)cc3)c(=O)c3c2c2ccccc2n3C)cc1,,inactive: 22.5%
C/C(=N\Nc1ccc(Cl)c(C(=O)O)c1)c1cccc2ccccc12,,inactive: -3.53%
COc1ccc(-n2c(C)c(C(C)=O)c(C(C)=O)c2C)cc1,"inconclusive: 23.1 µM [cytotoxic, partial curve, poor fit]",
CCOC(=O)c1c(NC(=O)C(=O)N/N=C/c2ccc(O)c(OC)c2)sc2c1CCCCC2,"inconclusive: 16.4 µM [cytotoxic, single point]",
COc1ccc(/C=N/Nc2cc(C)nc3ccc(Br)cc23)cc1,active: 16.4 µM,
Fc1ccc(CNC(=S)NCc2ccc(F)cc2)cc1,,inactive: -1.66%
CC(C)(C)c1ccc(S(=O)(=O)N2CCC(O)(c3ccc(Cl)cc3)CC2)cc1,"inconclusive: 13 µM [cytotoxic, partial curve, poor fit]",
O=C(NCCC1=CCCCC1)C(=O)NCC(c1ccco1)N1CCN(c2ccccc2)CC1 (centres undefined),"inconclusive: 2.91 µM [cytotoxic, full curve]",
COC(=O)Cn1c(=NC(=O)c2ccc(Cl)s2)sc2cc(C)ccc21,"inconclusive: 4.11 µM [cytotoxic, full curve]",
Cc1sc2nc(CSCC(=O)Nc3ccc(OC(F)F)cc3)[nH]c(=O)c2c1C,"inconclusive: 23.1 µM [cytotoxic, partial curve, poor fit]",
CC(=O)SC1CC(=O)N(c2ccc(C(C)(C)C)cc2)C1=O (centres undefined),"inconclusive: 5.8 µM [rising, partial curve]",
Cc1cc(O)ccc1NC(=S)NC(=O)c1cncc(Br)c1,"inconclusive: 18.4 µM [cytotoxic, partial curve, poor fit]",

# Some values from the list:
# `Cc1ccc2[nH]c(=O)c(COC(=O)C3CCCCC3)cc2c1` – Potency: inconclusive: 32.6 µM [cytotoxic, single point]
# `CCc1ccc(NC(=O)c2nn(-c3ccc(OC)cc3)c(=O)c3c2c2ccccc2n3C)cc1` – activity change, negative = cytotoxicity: inactive: 22.5%
# `COc1ccc(-n2c(C)c(C(C)=O)c(C(C)=O)c2C)cc1` – Potency: inconclusive: 23.1 µM [cytotoxic, partial curve, poor fit]
# `OC1CCCN(Cc2c3ccccc3cc3ccccc23)C1` (centres undefined) – Potency: inconclusive: 18.4 µM [cytotoxic, partial curve]
# `C/C(=N\Nc1ccc(Cl)c(C(=O)O)c1)c1cccc2ccccc12` – activity change, negative = cytotoxicity: inactive: -3.53%

# Remaining list, next part:

SMILES,Potency,"activity change, negative = cytotoxicity"
O=C1CC[C@@H](O)CCN1CC[C@H](Sc1ccccc1)c1ccccc1,"inconclusive: 20.6 µM [cytotoxic, single point]",
COc1cc2c(=O)n(C)c3ccccc3c2cc1OC,"inconclusive: 2.59 µM [cytotoxic, full curve, poor fit]",
CN1/C(=C\C(=O)c2cccnc2)C(C)(C)c2ccccc21,"inconclusive: 25.9 µM [cytotoxic, single point]",
Cc1ccc(S(=O)(=O)NCCNC(C)c2ccc(Br)cc2)cc1 (centres undefined),"inconclusive: 20.6 µM [cytotoxic, partial curve, poor fit]",
COc1ccc(CC(=O)Oc2ccccc2C)cc1,"inconclusive: 20.6 µM [rising, partial curve]",
Cc1ccc(C2=NN(C(=O)CCl)C(c3ccco3)C2)o1 (centres undefined),"inconclusive: 29.1 µM [cytotoxic, single point]",
Cc1cccc(C)c1NC(=O)C1(C)CN(S(C)(=O)=O)CC(=O)N1CCc1ccccc1F (centres undefined),"inconclusive: 23.1 µM [cytotoxic, partial curve]",
CCCCCCc1cc2cc(C(=O)NC)c(=N)oc2cc1O,,inactive: -8.84%
CCCCc1nnc(NC(=O)CCS(=O)(=O)c2ccc(C)cc2)s1,,inactive: 26.7%
O=S(=O)(Nc1nc2ccccc2s1)c1ccc(Cl)s1,"inconclusive: 20.6 µM [cytotoxic, partial curve]",
COc1ccc(CNCC(O)(c2ccc(F)cc2)c2ccc(F)cc2)cc1OC,,inactive: -5.81%
COc1ccc([N+](=O)[O-])cc1NC(=O)C(C)NNC(=O)c1cccc([N+](=O)[O-])c1 (centres undefined),active: 18.4 µM,
COC(=O)[C@@]12C[C@@H](CC(=O)NCc3cccs3)C(=O)N(Cc3cccc4ccccc34)C1=CCC(C)(C)C2,active: 16.4 µM,
COc1ccc(-c2nn(-c3ccccc3)cc2/C=N/N2C(=O)CSC2=S)cc1,"inconclusive: 29.1 µM [cytotoxic, single point]",
CCc1nc(SCC(=O)Nc2cc(OC)ccc2OC)c2c(C)c(C)sc2n1,"inconclusive: 11.6 µM [cytotoxic, partial curve, poor fit]",
COc1ccc(N=Cc2c(O)c3ccccc3n2C(C)=O)cc1,"inconclusive: 11.6 µM [cytotoxic, partial curve]",
CSc1ncc(C(=O)N2CCN(c3cccc(C(F)(F)F)c3)CC2)c(C)n1,,inactive: 4.67%
COc1ccccc1OCC(=O)Nc1c(C(=O)c2ccc(F)cc2)oc2ccccc12,,inactive: -36.3%
COc1ccc(/C=N/n2cnn(Cc3ccccc3Cl)c2=S)cc1OC,"inconclusive: 20.6 µM [cytotoxic, partial curve]",
COc1ccccc1S(=O)Cc1ccc(C(=O)NCc2ccccc2Cl)o1 (centres undefined),"inconclusive: 0.0073 µM [cytotoxic, full curve, poor fit]",
CCC(CC)C(=O)Nc1ccc(Nc2ccccc2)cc1,"inconclusive: 20.6 µM [cytotoxic, single point]",
CCOC1=C2[C@@H](CN(S(=O)(=O)c3ccc(C)cc3)[C@H]2c2ccccc2)[C@H]2C(=O)N(c3ccccc3)C(=O)[C@H]2C1,,inactive: 7.23%

SMILES,Potency,"activity change, negative = cytotoxicity"
CCOc1ccc(NC(=O)CN(C)C(=O)Cc2ccc3c(c2)OCCO3)cc1OCC,,inactive: -8.21%
O=C(CCCC(=O)N(c1ccc(F)cc1)C(C(=O)NC1CCCC1)c1ccc(O)cc1)Nc1ccccn1 (centres undefined),"inconclusive: 1.84 µM [rising, partial curve, poor fit]",
CCN(CC)C(=O)C1=C(C)N(CCC2=CCCCC2)C(=O)C(CC(=O)NCCc2ccccn2)C1 (centres undefined),"inconclusive: 9.2 µM [cytotoxic, partial curve, poor fit]",
COc1cccc(C(=O)Oc2c(Br)cc(Br)cc2/C=N/NC(=O)c2cc(C)[nH]n2)c1,"inconclusive: 29.1 µM [cytotoxic, single point]",
COC(=O)c1c(NC(=O)COC(=O)[C@@H](NS(=O)(=O)c2ccc(C)cc2)C(C)C)sc2c1CCC2,"inconclusive: 5.8 µM [cytotoxic, partial curve]",
O=C(Nc1ccccc1N1CCOCC1)c1cc(-c2ccncc2)nc2ccccc12,active: 18.4 µM,
C#CCNC(=O)C[C@@H]1C[C@@]2(C(=O)OCC)CCCC=C2N(Cc2cccc3ccccc23)C1=O,"inconclusive: 5.8 µM [cytotoxic, partial curve]",
O=C(NCc1ccc(Cl)cc1)C1CCN(c2cnccn2)CC1,,inactive: 9.76%
CCOC(=O)c1ccc(NCc2ccncc2)cc1,"inconclusive: 29.1 µM [cytotoxic, single point]",
COc1ccc(-c2cn(/N=C/c3ccc(Cl)cc3Cl)c(N)n2)cc1,"inconclusive: 20.6 µM [cytotoxic, partial curve]",
Cc1cc(F)ccc1S(=O)(=O)Nc1ccccc1C(=O)Nc1ccccc1N1CCOCC1,"inconclusive: 20.6 µM [cytotoxic, single point]",
CCOC(=O)N1CCN(C(=O)c2ccc3c(c2)N=C(CC)c2cc(C)ccc2S3)CC1,,inactive: -15.1%
O=C(c1cc(S(=O)(=O)N2CCOCC2)ccc1F)N1CCN(Cc2ccccc2)CC1,"inconclusive: 29.1 µM [cytotoxic, single point]",
O=C(CSc1c2c(nc3cc(Cl)ccc13)CCCC2)NCc1ccccc1Cl,,inactive: 10.9%
Cc1cc(C2=NNC(=Nc3ccccc3)SC2)c(C)n1C,,inactive: 0%
CCCCC(=O)Nc1cc(OC)c(NC(=S)NC)cc1OC,"inconclusive: 29.1 µM [rising, single point]",
COc1ccc(C(CNC(=O)c2ccc(S(=O)(=O)N(C)C)cc2)N(C)C)cc1 (centres undefined),"inconclusive: 9.2 µM [cytotoxic, partial curve, poor fit]",
CCc1ccc(/C=N\NC(=O)c2ccc(Br)o2)s1,active: 18.4 µM,
CCOc1cccc(CN(C)CC2CCCN(CCc3ccc(Cl)cc3)C2)c1O (centres undefined),"inconclusive: 3.66 µM [cytotoxic, partial curve, poor fit]",
CN=C1N(C)C[C@@H]2[C@@H]3C(=O)N(Cc4ccccc4)C(=O)[C@@H]3[C@](Cc3ccccc3)(C(=O)OC)N12,,inactive: -2.35%
Cc1ccc(CNC(=O)CSc2nc3ccsc3c(=O)n2Cc2ccc(C(=O)O)cc2)cc1,"inconclusive: 20.6 µM [rising, single point]",
O=S(=O)(c1ccc(OCc2nc3ccccc3s2)c(Cl)c1)N1CCOCC1,"inconclusive: 14.6 µM [cytotoxic, partial curve, poor fit]",
CC(C)(C)OC(=O)N1CCN(C(=O)Nc2ccc3c(c2)OCCO3)CC1,"inconclusive: 20.6 µM [cytotoxic, partial curve, poor fit]",
